PMC4068991
For at least one entry, the source does not settle the construct or the ends of the probe. Results from cells or extracts need not show a direct contact. Negatives hold for the conditions tested. For part of these data: At least one verdict rests on a figure or table, not on a statement of the authors. For part of these data: Where a protein sequence is shown, tags need not be part of it.

The chains behind the UniProt entries cited, without tags or fusion partners.
UniProt P20263, whole entry: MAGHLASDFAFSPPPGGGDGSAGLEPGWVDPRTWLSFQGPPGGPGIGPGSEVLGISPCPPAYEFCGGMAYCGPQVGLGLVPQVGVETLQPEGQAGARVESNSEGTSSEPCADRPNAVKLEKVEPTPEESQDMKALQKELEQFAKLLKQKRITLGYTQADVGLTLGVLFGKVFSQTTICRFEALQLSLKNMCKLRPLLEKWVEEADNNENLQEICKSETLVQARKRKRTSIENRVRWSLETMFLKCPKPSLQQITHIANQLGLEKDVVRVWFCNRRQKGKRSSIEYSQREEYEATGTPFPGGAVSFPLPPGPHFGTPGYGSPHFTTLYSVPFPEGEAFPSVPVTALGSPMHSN

Assays:
[1] = target: Oct4 (Mus musculus (ZHBTc4 ES cells)) (UniProt P20263); test: EMSA; settings: Z- extract, 40 ug whole ES cell extract, 32P ds oligonucleotide, native 4% polyacrylamide gel, pH and temperature not stated (refers to Rallu 1997), protein in an extract, label: 32P
[2] = target: T1, Nanog (Mus musculus (RCNβH ES cells)) (UniProt Q80Z64); test: EMSA; settings: R- extract, also no shift with R+ extract; 40 ug whole ES cell extract, 32P ds oligonucleotide, native 4% polyacrylamide gel; pH and temperature not stated (refers to Rallu 1997); protein in an extract; label: 32P
T1 sequence (looked up, limits assumed): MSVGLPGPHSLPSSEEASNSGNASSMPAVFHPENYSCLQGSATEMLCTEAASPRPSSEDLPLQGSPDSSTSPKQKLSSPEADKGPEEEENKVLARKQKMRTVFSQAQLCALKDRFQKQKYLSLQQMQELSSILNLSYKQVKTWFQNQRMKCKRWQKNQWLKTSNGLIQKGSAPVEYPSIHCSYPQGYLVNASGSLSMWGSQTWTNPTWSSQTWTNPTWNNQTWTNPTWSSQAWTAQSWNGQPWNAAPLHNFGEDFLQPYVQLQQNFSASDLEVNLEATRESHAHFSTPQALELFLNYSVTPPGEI

Sequence: TGGGGGCGGACTTTGGGACAGGAATTTACATTTCTTTAAAGGTAATTTCT (double strand) [Oct4 WT]
- binding result ([1]; no shift with Oct4-depleted Z+ extract, Oct4 antibody destabilizes complex): binds

Sequence: TGGGGGCGGACTTTGGGACAGGAATTTAGCGTTCTTTAAAGGTAATTTCT (double strand) [Oct4 MUT]
- binding result [1]: no binding

Sequence: TAGGACCCAGGGGCTGTAGGCCTCTGGGGA (double strand) [Nanog MUT]
- binding result [2]: no binding
